Experimental data published in US20240239759A1, “ISOXAZOLINE COMPOSITIONS AND THEIR USE AS ANTIPARASITICS” (Intervet Inc., priority 2007, published 2024).
At least one read-out could not be matched to a standard name with certainty.

Tested on: cat fleas (Ctenocephalides felis)
Test: Efficacy of various isoxazolines against cat fleas on mice (Example 3)
Assay type: in vivo
Conditions: oral 20 mg/kg, infested 1 hr after treatment
Protocol: In this experiment, mice were randomly assigned to a treatment group or a negative control (untreated) group. Each group consisted of three mice. The mice in the treatment groups were orally administered 20 mg/kg bodyweight of various isoxazolines dissolved in 7% DMF-premix and 93% purified water (aqua ad injectabilia). The application volume of these treatments was 0.01 mL/g bodyweight. One hour after treatment, each mouse was sedated and generally infested (whole body) with 30 vital, adult fleas (C. felis). To achieve this, the sedated mice were placed into an infestation-jar, and the fleas were placed directly onto the fur. After approximately 30 minutes of feeding, fleas were recovered from the mice. Assessments for inhibition and mortality were conducted 1 hr, 24 hr, and 48 hr after each infestation. The efficacy was calculated as the percentage of inhibited fleas in the treatment groups relative to the negative control group.

SMILES | Flea inhibition relative to negative control (1 hr after infestation) | Flea inhibition relative to negative control (24 hr after infestation) | Flea inhibition relative to negative control (48 hr after infestation)
COC(=O)N(C(=O)c1ccc(C2=NOC(c3cc(Cl)cc(Cl)c3)(C(F)(F)F)C2)cc1C)c1ncc(Cl)cn1 (centres unmarked) [Compound 5-42] | 5.5% | 5-35 (100%), 5-42 (100%), | 5-35 (100%), 5-42 (100%),
CO/N=C\NC(=O)c1ccc(C2=NOC(c3cc(Cl)cc(Cl)c3)(C(F)(F)F)C2)cc1C (centres unmarked) [Compound 5-43] | 5-26 (0%), 5-43 (0%), |  | 
COC(=O)N(C(=O)c1ccc(C2=NOC(c3cc(Cl)cc(Cl)c3)(C(F)(F)F)C2)cc1C)c1ncc(Cl)cn1 (centres unmarked) [Compound 5-48] | 5-16 (0%), 5-48 (0%), |  | 
CO/N=C\NC(=O)c1ccc(C2=NOC(c3cc(Cl)cc(Cl)c3)(C(F)(F)F)C2)cc1C (centres unmarked) [Compound 10-1, (Z)-4-[5-(3,5-dichlorophenyl)-5-trifluoromethyl-4,5-dihydroisoxazol-3-yl]-N-[(methoxyimino)methyl]-2-methylbenzamide] | 63.3% | 5-63 (95.6%), 10-1 (95.6%), | 5-64 (97.8%), 10-1 (97.8%),
